Among the data in article PMC8546558 are binding values, retold here.

Changes are numbered by the printed parent chain. These are yes or no findings as the source states them, for the method shown. For some assays here: In cells and extracts the contact can be indirect. Some results given as binding are weak or reduced against the parent protein; the word gives no strength. Tags and fused reporters may be left off the sequences shown.

For test [1], the target named is T1, NisB_(flag) (NisB C-terminally labeled by a Flag tag) (Lactococcus lactis) (UniProt P20103).
T1 sequence: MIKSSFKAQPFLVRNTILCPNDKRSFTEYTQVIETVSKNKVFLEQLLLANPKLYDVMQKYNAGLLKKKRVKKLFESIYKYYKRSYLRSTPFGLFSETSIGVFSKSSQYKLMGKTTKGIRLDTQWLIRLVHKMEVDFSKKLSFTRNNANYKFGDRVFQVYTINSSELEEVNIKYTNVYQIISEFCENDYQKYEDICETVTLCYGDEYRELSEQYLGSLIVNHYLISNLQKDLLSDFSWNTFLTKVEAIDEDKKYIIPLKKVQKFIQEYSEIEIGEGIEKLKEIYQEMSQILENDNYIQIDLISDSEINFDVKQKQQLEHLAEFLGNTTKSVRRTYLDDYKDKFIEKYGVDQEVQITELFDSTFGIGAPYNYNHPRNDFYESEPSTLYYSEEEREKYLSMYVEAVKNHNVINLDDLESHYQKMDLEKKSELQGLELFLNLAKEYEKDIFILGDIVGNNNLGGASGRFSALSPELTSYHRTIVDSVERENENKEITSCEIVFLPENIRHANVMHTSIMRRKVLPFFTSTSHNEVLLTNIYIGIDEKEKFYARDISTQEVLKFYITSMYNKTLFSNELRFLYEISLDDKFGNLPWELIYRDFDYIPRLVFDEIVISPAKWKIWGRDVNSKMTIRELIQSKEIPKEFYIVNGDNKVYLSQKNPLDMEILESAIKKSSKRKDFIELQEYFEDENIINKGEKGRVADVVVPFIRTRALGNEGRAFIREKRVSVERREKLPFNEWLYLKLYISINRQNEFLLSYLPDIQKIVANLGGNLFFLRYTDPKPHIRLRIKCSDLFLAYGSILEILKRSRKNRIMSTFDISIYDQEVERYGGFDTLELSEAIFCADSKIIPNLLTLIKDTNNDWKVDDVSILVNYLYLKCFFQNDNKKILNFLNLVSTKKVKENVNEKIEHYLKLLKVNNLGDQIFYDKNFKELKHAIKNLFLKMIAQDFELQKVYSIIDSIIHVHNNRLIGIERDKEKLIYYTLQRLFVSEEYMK
Nature of the test: SEC; elution of the Ni-NTA purification of NisA_(GS-His) run on ENrich SEC 650 10/300 at 4°C; fractions analysed by SDS-PAGE and Western blotting; sizes estimated from a calibration curve.

For test [2], the target named is T2, NisTHis (NisT C-terminally labeled by a 6×His tag) (Lactococcus lactis) (UniProt Q03203).
T2 sequence: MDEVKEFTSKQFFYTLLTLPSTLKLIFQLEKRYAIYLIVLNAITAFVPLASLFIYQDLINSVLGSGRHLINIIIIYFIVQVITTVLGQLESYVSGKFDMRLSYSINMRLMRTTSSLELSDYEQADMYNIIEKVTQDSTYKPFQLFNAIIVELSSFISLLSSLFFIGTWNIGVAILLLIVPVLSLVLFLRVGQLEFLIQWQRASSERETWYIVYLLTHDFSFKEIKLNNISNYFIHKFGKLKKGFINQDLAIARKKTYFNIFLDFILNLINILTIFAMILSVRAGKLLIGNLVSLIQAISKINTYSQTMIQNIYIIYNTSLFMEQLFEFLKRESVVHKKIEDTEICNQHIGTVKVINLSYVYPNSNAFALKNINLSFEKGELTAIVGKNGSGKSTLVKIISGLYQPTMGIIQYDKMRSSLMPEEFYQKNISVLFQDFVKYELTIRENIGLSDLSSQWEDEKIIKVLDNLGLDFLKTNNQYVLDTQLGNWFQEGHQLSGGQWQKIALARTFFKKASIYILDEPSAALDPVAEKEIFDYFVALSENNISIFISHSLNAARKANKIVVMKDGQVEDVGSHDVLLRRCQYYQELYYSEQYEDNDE
Put plainly: pull-down; NisTHis held on Ni-NTA agarose from DDM-solubilised membrane; expression combinations: NisB_(flag) and NisC without NisA, NisB_(flag) alone, NisC alone; SDS-PAGE and Western blotting. (A western blot detects proteins with antibodies after separation by electrophoresis.)

Test [3] deals with T2, NisTHis (NisT C-terminally labeled by a 6×His tag) (Lactococcus lactis). Nature of the test: pull-down; NisTHis or NisT^H551AHis held on Ni-NTA agarose from DDM-solubilised cytoplasmic membrane of L. lactis NZ9000 coexpressing NisA, NisB_(flag) and NisC; 50 mM Tris-HCl, 300 mM NaCl, 0.1% DDM, pH 7.4, 4°C; elutions blotted with anti-Flag and anti-NisC.
Test [4] addresses T3, NisT^H551AHis (mutation H551A introduced in NisTHis) (Lactococcus lactis) (UniProt Q03203).
T3 sequence: T2 sequence with H551A
The test is described as above.

The target in test [5] is T4, NisCHis (6×His-tagged NisC) (Lactococcus lactis) (UniProt Q03202).
T4 sequence: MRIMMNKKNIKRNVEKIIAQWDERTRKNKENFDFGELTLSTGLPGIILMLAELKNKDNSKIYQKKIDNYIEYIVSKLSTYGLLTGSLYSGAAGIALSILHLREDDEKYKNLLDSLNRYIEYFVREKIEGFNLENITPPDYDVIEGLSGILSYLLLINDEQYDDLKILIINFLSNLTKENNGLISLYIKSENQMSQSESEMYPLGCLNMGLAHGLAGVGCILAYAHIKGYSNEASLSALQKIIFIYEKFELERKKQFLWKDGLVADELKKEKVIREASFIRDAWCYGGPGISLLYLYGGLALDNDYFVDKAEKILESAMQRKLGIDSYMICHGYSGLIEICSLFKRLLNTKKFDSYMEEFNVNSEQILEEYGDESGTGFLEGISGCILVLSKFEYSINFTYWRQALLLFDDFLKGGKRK
Put plainly: pull-down; NisCHis held on Ni-NTA agarose from the cell lysate of L. lactis NZ9000 coexpressing NisB_(flag), NisB^G_(flag) or NisB^E_(flag), without NisA; SDS-PAGE and Western blotting with anti-Flag.

B1: NisC (tag-free) (enzyme, UniProt Q03202 1-418)
chain: T4 sequence
As for B1, the binding entry in test [1] is on record as “binds”; in test [2] it was “binds”; in test [3] it was “binds weakly”; in test [4], “binds weakly”.

B2: NisB_(flag) (NisB C-terminally labeled by a Flag tag) (enzyme, UniProt P20103 1-993)
chain: T1 sequence
Take B2: the binding result is given as “binds” in test [2], “binds” in test [5], “binds weakly” in test [3] and “binds weakly” in test [4].
